Earlier results in US7838281B2, “Sulfide bath” (Soothing Sulfur Spas, LLC, priority 2007, dated 2010).
At least one structure is not confirmed: it was looked up by name or label, or the drawing left a doubt.

Conditions: aqueous solution

S [H2S, Hydrogen sulfide]
pK for the H2S/HS^− couple: 6.9
